Consider 36 compounds from the supplement of paper PMC4635364.

Structures can show the parent of a compound that is named as a salt. The list shows a part of the results. Single values are uncertain here, since repeats match poorly.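 Human fetal ventral-midbrain neural progenitor line ReNCell VM, differentiated without mitogens. Images stained for doublecortin (early neurons) or tyrosine hydroxylase (dopaminergic neurons) were scored by blinded raters against untreated wells (0 = no change). Repeats and both raters were averaged, and compounds averaging 2 or higher were picked as hits for retesting.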

The subject of one assay is ReNCell VM. As to the kind of experiment: neuronal differentiation score (DCX+ cell fraction vs untreated, manual image score) (score (-3 to 3)); higher = more neuronal differentiation. Particulars: library: Tocriscreen; 2 uM; 2 weeks.
As for `Cc1ncsc1CCCl` [Chlormethiazole hydrochloride], the neuronal differentiation score is inactive: 0.

Consider `O=C1/C(=C/c2ccccc2)C[C@@]2(O)[C@H]3Cc4ccc(O)c5c4[C@@]2(CCN3CC2CC2)[C@H]1O5` [BNTX maleate], for which the neuronal differentiation score was inactive: 0.

As for `Oc1ccc2c3c1O[C@H]1c4c(c5ccccc5n4Cc4ccccc4)C[C@@]4(O)C(C2)N(CC2CC2)CC[C@]314` [N-Benzylnaltrindole hydrochloride], the neuronal differentiation score is inactive: 0.

On to `CN(C)CCN(C)CCc1ccc(Cl)c(Cl)c1` [BD 1047 dihydrobromide], for which the neuronal differentiation score was inactive: 0. `COC(=O)/C=C/C(=O)N[C@@H]1CC[C@@]2(O)[C@H]3Cc4ccc(O)c5c4[C@@]2(CCN3CC2CC2)[C@H]1O5` [?-Funaltrexamine hydrochloride]: the neuronal differentiation score was inactive: -1. The same measure, in the same setting: the result for `N#Cc1ccc(N2CCN(C(=O)COc3ccc4[nH]cc(CCN)c4c3)CC2)cc1` [Donitriptan hydrochloride] reads inactive: 0. Still for that read-out and setting: then `COC(=O)[C@@H](N)CCCNC(=N)N[N+](=O)[O-]` [L-NAME hydrochloride], with inactive: 0. On the same count and under the same terms, the result for `CC(=O)C1=C(O)[C@@H]2[C@H]3c4c[nH]c5cccc(c45)C[C@H]3C(C)(C)N2C1=O` [Cyclopiazonic Acid] reads inactive: 0.

A further assay has as its system ReNCell VM. Put plainly: dopaminergic neuron differentiation score (TH+ cell fraction vs untreated, manual image score) (score (0 to 3)); higher = more TH+ dopaminergic neuron differentiation. Particulars: library: LOPAC; 2 uM; 4 weeks; BDNF 10 ng/ml + GDNF 10 ng/ml.
Regarding `CN(N=O)c1cc(O)ccc1O` [Dephostatin], the “dopaminergic neuron differentiation score” value was inactive: 0. Same read-out and setting: then `CC(C)N(CCC(C(N)=O)(c1ccccc1)c1ccccn1)C(C)C` (stereo unspecified) [Disopyramide phosphate], with inactive: 0; and `COc1ccc2[nH]c3c(c2c1)CCNC3` [6-Methoxy-1,2,3,4-tetrahydro-9H-pyrido[3,4b] indole], with inactive: 0. The same measure, in the same setting: then `N=C(NCCC[C@H](N)C(=O)O)N[N+](=O)[O-]` [NG-Nitro-L-arginine], with inactive: 0; and `C=CCN1CC[C@]23c4c5ccc(O)c4O[C@H]2/C(=N/N=C2\CC[C@@]4(O)[C@H]6Cc7ccc(O)c8c7[C@@]4(CCN6CC=C)[C@H]2O8)CC[C@@]3(O)[C@H]1C5` [Naloxonazine dihydrochloride], with inactive: 0. The same measure, in the same setting: then `CC(C)Oc1cccnc1N(C)C1CCN(Cc2ccc(I)cc2)CC1` [RBI 257 maleate salt], with inactive: 0.

Still in this assay, the particulars now being: library: Prestwick; 2 uM; 4 weeks; BDNF 10 ng/ml + GDNF 10 ng/ml.
As for `CCC(C)C1O[C@]2(C=C[C@@H]1C)C[C@@H]1CC(C/C=C(\C)[C@@H](OC3C[C@H](OC)[C@@H](OC4C[C@H](OC)[C@@H](O)[C@H](C)O4)[C@H](C)O3)[C@@H](C)/C=C/C=C3\COC4[C@H](O)C(C)=CC(C(=O)O1)[C@]34O)O2` (stereo partly specified) [Avermectin B1a], the “dopaminergic neuron differentiation score” value was inactive: 1. Same read-out and setting: then `CC1OC(OC2/C=C/C=C/C=C/C=C/CC/C=C/C=C/[C@H](C)[C@@H](O)[C@@H](C)[C@H](C)OC(=O)CC(O)CC(O)CC(O)CCC(O)C(O)C[C@]3(O)CC(O)C(C(=O)O)C(C2)O3)C(O)C(N)C1O` (stereo partly specified) [Nystatine], with inactive: 0; and `OC(c1ccccc1)(c1ccccc1)C1CCNCC1` [Azacyclonol], with inactive: 0. On the same count and under the same terms, then `CCC1(c2ccc(N)cc2)CCC(=O)NC1=O` (stereo unspecified) [Glutethimide, para-amino], with inactive: 0; and `O=C([O-])c1ccccc1-c1c2cc(Br)c(=O)cc-2oc2[c]([Hg+])c([O-])c(Br)cc12.[Na+].[Na+].[OH-]` [Merbromin], with inactive: 0; and `O=[N+]([O-])O[C@H]1CO[C@H]2[C@@H]1OC[C@H]2O[N+](=O)[O-]` [Isosorbide dinitrate], with inactive: 0.

Still in this assay, the particulars now being: library: Spectrum; 2 uM; 4 weeks; BDNF 10 ng/ml + GDNF 10 ng/ml.
For `CN1CCN(C(=O)O[C@H]2c3nccnc3C(=O)N2c2ccc(Cl)cn2)CC1`, the “dopaminergic neuron differentiation score” value was inactive: 0.

As for `CC(C)=CC1C(C(=O)OCc2cccc(Oc3ccccc3)c2)C1(C)C` (stereo unspecified), the “dopaminergic neuron differentiation score” value is inactive: 0. The same measure, in the same setting: the result for `CC(N)C(O)c1ccccc1` (stereo unspecified) reads inactive: 0; that for `CN1[C@H]2C[C@H](OC(=O)[C@H](CO)c3ccccc3)C[C@@H]1[C@@H](O)C2`, inactive: 0; that for `O=C1C2CC=CCC2C(=O)N1SC(Cl)(Cl)Cl` (stereo unspecified), inactive: 0. Still for that read-out and setting: then `c1ccc2c(c1)Nc1ccccc1S2`, with inactive: 0. Same read-out and setting: the result for `CC(=O)O[C@H]1CC[C@@]2(C)[C@H](CC[C@@H]3[C@@H]2CC[C@]2(C)[C@@H](C4=CC(=O)OC4)[C@@H](OC(C)=O)C[C@]32O)C1` reads inactive: 0. As for `NCCc1ccc(O)cc1`, the “dopaminergic neuron differentiation score” value was inactive: 0. As for `CC(C)c1ccc2c(c1O)CC[C@H]1C3=C(CC[C@]21C)C(=O)OC3`, the “dopaminergic neuron differentiation score” value was inactive: 0.

Turning to `CO[C@]12C[C@@H](COC(=O)c3cncc(Br)c3)CN(C)[C@@H]1Cc1cn(C)c3cccc2c13`, the “dopaminergic neuron differentiation score” value is inactive: 0. The same measure, in the same setting: the result for `CC(C)c1cccc(C(C)C)c1O` reads inactive: 0. The same measure, in the same setting: the result for `C[N+]12CCC(CC1)C(OC(=O)C(O)(c1ccccc1)c1ccccc1)C2` (stereo unspecified) reads inactive: 1; that for `O=[N+]([O-])c1cc([As](=O)(O)O)ccc1O`, inactive: 0; that for `C/C=C(\C)C(=O)O[C@H]1C[C@@H](OC(C)=O)[C@@]2(C(=O)OC)CO[C@H]3[C@@H](O)[C@@](C)([C@]45O[C@@]4(C)[C@H]4C[C@@H]5O[C@@H]5OC=C[C@@]54O)[C@H]4[C@]1(CO[C@]4(O)C(=O)OC)[C@@H]32`, inactive: 0.

Turning to `CC[C@@H](C)C(=O)O[C@H]1[C@H](O)[C@H]2[C@@H](CN3C[C@@H](C)CC[C@H]3[C@@]2(C)O)[C@@H]2C[C@]34O[C@]5(O)[C@@H](OC(=O)[C@@](C)(O)CC)CC[C@@]3(C)[C@@H]5[C@@H](OC(C)=O)[C@@H](OC(C)=O)[C@H]4[C@@]21O`, the “dopaminergic neuron differentiation score” value is inactive: 0. Still for that read-out and setting: the result for `O=C(NC(=O)c1c(F)cccc1F)Nc1cc(Cl)c(OC(F)(F)C(F)C(F)(F)F)cc1Cl` (stereo unspecified) reads inactive: 0.
